Structures are written as SMILES. The list shows a part of the results. These are further read-outs of the screen, such as a control signal, another cell line or another target. No call is given for them. Most of these compounds were active or inconclusive in the main read-out, so they are no random draw. Potencies come from curve fits of mixed quality, noted in brackets.

This experiment is described as follows: qHTS Assay for Lipid Storage Modulators in Drosophila S3 Cells.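 For cell number change: cells counted by Cell Tracker Red CMTPX staining in the red channel.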 The following applies: BODIPY lipid droplet fluorescence, 18-24 h; for cell number change: measured here: cell count max response, cells fed with added oleic acid. In a few lines: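 Drosophila S3 cells got compounds at several concentrations plus oleic acid (400 uM solution). Laser-scanning cytometry with 488 nm excitation read lipid droplets at 500-530 nm and cells at 575-640 nm. Percent activity was relative to 20 uM Triacsin C.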

Where [1] appears, read: measured here: cell number channel AC50, cells fed with added oleic acid.
The mark [2] stands for this setting: measured here: lipid fluorescence (Fed channel) AC50, cells fed with added oleic acid.

As for `Cc1c(NC(=O)C(C)Sc2nnc(-c3ccccc3)o2)c(=O)n(-c2ccccc2)n1C` (stereo unspecified), the cell number change turned out to be 0.282%.

A word on the AC50: it is the midpoint of the concentration-response curve, whichever way the signal moves. Take `O=C1C=C(c2cccc(CO)c2)C[C@@H](c2ccc3c(c2)OCO3)C1`: the cell number change was -1.03%. In addition, the AC50 under setting [1] was 1.16 µM [falling, single point]. In addition, the AC50 under setting [2] is 0.58 µM [falling, single point].

Regarding `O=C(Nc1cccnc1)c1cccc(NC(=O)c2ccco2)c1`, the AC50 under setting [2] is 16.4 µM [rising, partial curve].

For the compound `CC(CCc1ccccc1)NC(=O)c1ccc2nc(N3CCOCC3)sc2c1` (stereo unspecified), the cell number change is 1.6%. In addition, the AC50 under setting [2] is 0.146 µM [falling, full curve, poor fit].

In the case of `CCOC(=O)CC1C(=O)NCCN1c1nc2ccc(C)cn2c(=O)c1/C=C1\SC(=S)N(C(C)CC)C1=O` (stereo unspecified), the cell number change is -97.4%. Under setting [1], the AC50 was 2.59 µM [falling, full curve].

`C=CCn1c(Cc2cccs2)nnc1SCC(=O)Nc1ccc(OC)c(OC)c1`: the cell number change stood at 113%. Further, the AC50 under setting [1] was 5.17 µM [rising, partial curve]. Further, under setting [2], the AC50 was 3.66 µM [rising, partial curve].

For `CCc1ccc(-c2nc(CS(=O)CC(=O)NCCc3ccccc3)c(C)o2)cc1` (stereo unspecified), the cell number change is -19.6%. Moreover, the AC50 under setting [2] was 0.517 µM [falling, full curve, poor fit].

Turning to `COC(=O)C1CCN(C(=O)C2CCC(=O)N(CCc3cccc(F)c3)C2)CC1` (stereo unspecified), the AC50 under setting [1] was 1.84 µM [falling, partial curve, poor fit].

With `CCN1CCN(c2cc(C)c3cc(NC(=S)NCCCOC)ccc3n2)CC1`, the AC50 under setting [2] is 6.51 µM [rising, single point].

Consider `CN(C(=O)C1CCOC1)c1nnc(C2CCOC2)s1` (stereo unspecified), for which the cell number change is -9.55%. Under setting [2], the AC50 was 11.6 µM [falling, partial curve].

As for `O=C(NCC(c1cccs1)N1CCOCC1)c1cccnc1` (stereo unspecified), the cell number change was -0.167%.

As for `CCCCOc1ccc(C(=O)N(Cc2ccco2)C2CCS(=O)(=O)C2)cc1` (stereo unspecified), the cell number change is -5.2%.

As to `CC1CN(C(=O)c2ccccc2Oc2ccccc2)CC(C)O1` (stereo unspecified), the cell number change was -60.2%. In addition, the concentration at half-maximal activity (AC50) under setting [1] was 18.4 µM [falling, single point]. Under setting [2], the AC50 was 29.1 µM [falling, single point].

Take `CCCc1nn(C)c(C(=O)Nc2cccc(Cl)c2)c1Cl`: the cell number change is -33.6%. Besides, the AC50 under setting [1] is 16.4 µM [falling, single point]. Also, the AC50 under setting [2] was 18.4 µM [falling, single point].

Regarding `NS(=O)(=O)c1ccc(CCNC(=O)c2cc(-c3cc(Cl)ccc3O)n[nH]2)cc1`, under setting [2], the AC50 is 4.61 µM [rising, single point].

`Cc1ccc(C(=O)N(CC(=O)NC2CCCC2)c2cccc(F)c2)s1`: the cell number change is -3.81%. Besides, the AC50 under setting [1] was 0.082 µM [rising, full curve, poor fit].

In the case of `COc1ccc(C(=O)COC(=O)CN2CC(=O)Oc3ccccc32)cc1Br`, the cell number change was -78.4%. The AC50 under setting [1] is 16.4 µM [falling, partial curve].

Turning to `Cc1ccccc1N1C(=O)C2C3CCC(O3)C2C1=O` (stereo unspecified), the cell number change is 13%. In addition, under setting [2], the AC50 is 8.2 µM [rising, partial curve].

Take `CC1=C(C(N)=O)C(c2ccc(Cl)cc2)n2nc(CCCO)nc2N1` (stereo unspecified): the cell number change worked out at 52.1%. Further, the AC50 under setting [1] is 23.1 µM [rising, single point].

For the compound `CN(C(=S)NC(=O)Cc1ccccc1)c1ccccc1`, the cell number change is 85.7%. Moreover, the AC50 under setting [1] is 16.4 µM [rising, single point].

`COc1ccc2c(c1)Sc1ccccc1N2`: the cell number change is -59.3%. The AC50 under setting [1] was 11.6 µM [falling, partial curve, poor fit]. The AC50 under setting [2] was 25.9 µM [falling, single point].

Consider `CC1=CCC(Cc2nc3ccccc3o2)C1(C)C` (stereo unspecified), for which the cell number change is -48.6%. For the same compound, the AC50 under setting [1] is 32.6 µM [falling, partial curve, poor fit].

As for `O=S(=O)(c1ccccc1)c1nc(-c2ccc(F)cc2)oc1NCC1CCCO1` (stereo unspecified), the cell number change came out at 2.9%. Also, under setting [2], the AC50 is 29.1 µM [falling, single point].

Consider `CCOc1c2ccccc2nn1CCOC`, for which the cell number change was 21.8%. For the same compound, under setting [2], the AC50 was 0.517 µM [rising, full curve, poor fit].

With `Cn1c(CC(=O)Nc2ccccc2)n[nH]c1=S`, the cell number change worked out at 36.9%. For the same compound, under setting [1], the AC50 was 6.51 µM [rising, full curve, poor fit]. Moreover, the AC50 under setting [2] is 5.8 µM [rising, partial curve].

On to `Cn1ccnc1SCC(=O)Nc1nc2c(F)c(F)c(F)cc2s1`, for which the cell number change was 7.04%.

For `Cc1noc(C)c1C(=O)NCCCN1CCCC1=O`, the cell number change was -35.1%. Further, under setting [1], the AC50 was 16.4 µM [falling, partial curve, poor fit]. The AC50 under setting [2] is 8.2 µM [falling, partial curve].

As for `COC(=O)C(C#N)C(=C1C(=O)CC(C)(C)CC1=O)c1ccc(O)cc1` (stereo unspecified), the cell number change was -139%. The AC50 under setting [1] is 29.1 µM [falling, partial curve]. Also, the AC50 under setting [2] was 0.651 µM [falling, single point].

For `Cc1ccc2nc(N(CCN3CCOCC3)C(=O)CCS(=O)(=O)c3ccccc3)sc2c1`, the cell number change was -62.1%. The AC50 under setting [1] was 16.4 µM [falling, single point]. Besides, under setting [2], the AC50 is 0.00461 µM [rising, full curve, poor fit].

As to `CSCc1cccc(C(=O)OC(C)C(=O)Nc2c(C)n(C)n(-c3ccccc3)c2=O)c1` (stereo unspecified), the cell number change is 4%. Further, the AC50 under setting [2] was 0.58 µM [rising, single point].

With `c1cncc(-c2nc(-c3ccco3)cs2)c1`, the cell number change was -11.7%. The AC50 under setting [2] was 0.731 µM [rising, single point].

Regarding `COc1cc(C(=O)N2CCN(c3ncnc4sc(C)c(C)c34)CC2)cc(OC)c1OC`, the cell number change was -34.3%. For the same compound, the AC50 under setting [1] is 10.3 µM [falling, partial curve, poor fit]. Moreover, under setting [2], the AC50 was 8.2 µM [falling, partial curve].

Regarding `CCN(CC)c1nc(C)c(C(=S)Nc2cc([N+](=O)[O-])ccc2Cl)s1`, the cell number change was -28.3%. The AC50 under setting [2] is 1.64 µM [falling, partial curve, poor fit].

For the compound `CCOc1ccccc1CNC(=O)c1ccccc1NC(=O)C1=CSCCO1`, the cell number change is -10%. Further, the AC50 under setting [2] is 11.6 µM [falling, single point].

As for `O=C(CCn1ccc2cc(S(=O)(=O)N3CCCC3)ccc21)NCc1ccccc1F`, the cell number change is -12.9%. The AC50 under setting [2] was 29.1 µM [rising, single point].

Turning to `COC(=O)c1cccc(COC(=O)c2cccnc2SC)c1`, the cell number change worked out at 55.2%. Besides, the AC50 under setting [1] was 29.1 µM [rising, single point].

In the case of `S=c1[nH]nc(-c2cc(-c3ccccc3)n[nH]2)n1/N=C/C(Br)=C/c1ccccc1`, the cell number change was -68.5%. The AC50 under setting [1] was 18.4 µM [falling, single point]. Also, under setting [2], the AC50 is 16.4 µM [falling, partial curve, poor fit].

As to `C=CCn1cc(-c2ccc(Cl)cc2)cc(C#N)c1=O`, the cell number change was 104%. Further, under setting [1], the AC50 was 7.31 µM [rising, partial curve]. For the same compound, the AC50 under setting [2] is 9.2 µM [rising, partial curve].

Consider `O=C1C2(c3ccccc3)CN(CCO)CC1(c1ccccc1)CN(CCO)C2`, for which the cell number change was -96.6%. Also, under setting [1], the AC50 was 23.1 µM [falling, partial curve]. Further, the AC50 under setting [2] was 1.46 µM [falling, partial curve].

On to `COC(=O)CN1C(=S)N(c2ccc(F)cc2)C(=O)C1CC(=O)Nc1ccc(F)cc1` (stereo unspecified), for which the cell number change was -6.7%. In addition, the AC50 under setting [2] was 0.103 µM [falling, full curve, poor fit].

For `Cc1ccc(C)c(NC(=S)N2CCN(S(=O)(=O)c3ccccc3)CC2)c1`, the cell number change is -5.94%. Besides, the AC50 under setting [2] was 6.51 µM [falling, partial curve, poor fit].

Regarding `Cc1cccc2cc(CN(CC3CCCO3)C(=O)NC3CCCCC3)c(=O)[nH]c12` (stereo unspecified), the cell number change was -10.8%. Under setting [2], the AC50 is 6.51 µM [rising, single point].

Regarding `Cc1ccc(-n2nnnc2SCC(=O)N2CCNC2=O)cc1C`, the cell number change was -0.519%. Also, the AC50 under setting [2] is 0.731 µM [rising, single point].

Turning to `CCOc1ccc(-c2cccc(NS(=O)(=O)c3cc([N+](=O)[O-])ccc3C)c2)nn1`, the cell number change was -7.91%. The AC50 under setting [2] was 0.731 µM [falling, single point].

In the case of `COc1ccc(NC(=O)NNC(=O)C(C)Oc2ccc3ccccc3c2)cc1OC` (stereo unspecified), the cell number change worked out at 11.9%. The AC50 under setting [2] is 29.1 µM [rising, single point].

Turning to `CCCSCCCNC(=O)Cn1c(=O)c2cccn2c2ccccc21`, the cell number change is -15%. Moreover, the AC50 under setting [2] was 8.2 µM [falling, partial curve].

For `CC(=O)N1CCOc2ccc(S(=O)(=O)N3CCN(c4cccc(C(F)(F)F)c4)CC3)cc21`, the cell number change is -3.58%.

Take `Cn1cc(-c2nnnn2-c2ccc(Cl)cc2)c(C(F)(F)F)n1`: the cell number change came to 84.1%. In addition, the AC50 under setting [1] is 18.4 µM [rising, single point]. In addition, under setting [2], the AC50 is 0.58 µM [falling, single point].

For the compound `N#CC(Cc1ccccc1)(Cc1ccccc1)C(=O)NN`, the cell number change was -13.5%.

On to `S=C(NCCCn1ccnc1)Nc1ccc(Cl)cc1Cl`, for which the AC50 under setting [2] is 1 µM [rising, partial curve, poor fit].

Turning to `CCc1cccc(CC)c1NC(=S)NCc1ccc2c(c1)OCO2`, the cell number change was 16.1%. In addition, the AC50 under setting [2] is 29.1 µM [rising, single point].

On to `C/C(N)=C(/C#N)C(=O)CSc1nnc(Nc2ccccc2C)s1`, for which the cell number change is -10.8%.

With `Cc1cc(Cl)cc(Br)c1OCCCN1C(=O)NC(C)(C)C1=O`, the cell number change was found to be 0.433%.

As to `CCOc1cccc2sc(N(CCN(C)C)C(=O)c3cc4ccccc4cc3OC)nc12`, the cell number change was -11.6%. Also, under setting [2], the AC50 is 29.1 µM [falling, single point].

For `CCCN1C(=O)c2cc(C(=O)Nc3ccccc3C)ccc2C1Nc1ccccc1C` (stereo unspecified), the cell number change is -1.68%.

With `Cc1nnc(-c2cnn(C)c2N)n1Cc1ccc(Cl)cc1`, the AC50 is 5.17 µM [rising, single point] under setting [1] and 6.51 µM [rising, partial curve] under setting [2].

Consider `CC(=O)N1CCN(S(=O)(=O)c2cccc(C(=O)OCC(=O)N3CC(=O)Nc4ccccc43)c2)CC1`, for which the AC50 under setting [1] was 0.0651 µM [falling, full curve] and the AC50 under setting [2] was 0.0058 µM [falling, full curve, poor fit].

As to `O=C(/C=C/c1ccccc1)N1CCN(c2c(Cl)cccc2[N+](=O)[O-])CC1`, the cell number change was 37%. In addition, the AC50 under setting [1] was 0.92 µM [rising, full curve].
